Assay results reported in US8344017B2, “Anti-hepatitis C virus agents and anti-HIV agents” (Mitsubishi Corporation, priority 2003, dated 2013).
Some of these results come from one statement about several compounds together.

Assay: Solubility in DMSO
Assay type: physicochemical

| Compound | dissolved in DMSO at a concentration [mM] |
| --- | --- |
| CN1CC23c4c5c6c7c8c9c(c%10c%11c2c2c4c4c%12c5c5c6c6c8c8c%13c9c9c%10c%10c%11c%11c2c2c4c4c%12c%12c5c5c6c8c6c8c%13c9c9c%10c%10c%11c2c2c4c4c%12c5c6c5c8c9c%10c2c45)C73C1c1ccc[n+](C)c1 (centres unmarked) [compound 12] | ≥ 5 |
| C[N+]1(C)CC23c4c5c6c7c8c9c(c%10c%11c2c2c4c4c%12c5c5c6c6c8c8c%13c9c9c%10c%10c%11c%11c2c2c4c4c%12c%12c5c5c6c8c6c8c%13c9c9c%10c%10c%11c2c2c4c4c%12c5c6c5c8c9c%10c2c45)C73C1 (centres unmarked) [compound 9] | ≥ 5 |
